Reference: PubChem BioAssay AID2685 (National Center for Advancing Translational Sciences (NCATS), 2010)
Screen size: about 320,000 compounds; about 2,100 (0.66%) were called active. This list was built around the results that the source calls inconclusive (neither active nor inactive); the mix of calls is not that of the screen. Calls follow the shape of the dose curve; as a rule, active = well fitted inhibition curve with a large enough effect in the signal ratio, with a control signal flat (not every such curve was filed as active); inconclusive = small, poorly fitted or top-dose-only effect, or effect the other way, or a change in a side signal; inactive = flat fitted curve, though single readings scatter; the % refers to the signal ratio. A potency beside an inconclusive call is a rough fit, not a confirmed value.
% is scaled to controls: 0 for no effect and ±100 for the full control effect; potency is read from the fitted curve at half-maximal effect.

Assay: qHTS Assay for Lipid Storage Modulators in Drosophila S3 Cells
Conditions: BODIPY lipid droplet fluorescence, 18-24 h, cells fed with added oleic acid; lipid storage change, negative = inhibition: at 46.1 µM (top of the series) unless noted
Summary of the method: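 Drosophila S3 cells loaded with oleic acid (400 uM, as added) and compounds at several concentrations; lipid droplets imaged by 488-nm laser-scanning cytometry, 500–530 nm intensity and object ratio to cell channel. Percent activity normalized to 20 uM Triacsin C.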
With Cc1nn(CC(=O)N(C)C2CCS(=O)(=O)C2)c(C)c1[N+](=O)[O-] (stereo not drawn) the lipid storage change, negative = inhibition was “inconclusive”.
With O=C(Nc1cccc2c1N(C(=O)c1ccco1)CCC2)c1ccco1 the lipid storage change, negative = inhibition was inconclusive: 10.8%.
For COc1ccc(N2CCCC2)c(NC(=O)c2ccc([N+](=O)[O-])o2)c1, the Potency was active: 10.3 µM.
With C#CCSc1nnc(-c2c[nH]c3ccccc23)n1C the Potency was inconclusive: 2.06 µM [activator, partial curve, poor fit].
For CC1=CN2C(=NC(=O)CC2(C)C(=O)N(CC(=O)NC2CCCC2)Cc2ccccc2)C=C1 (stereo not drawn), the lipid storage change, negative = inhibition was inconclusive: -9.66%.
For Cn1c(=O)c(C(=O)CN2CCN(Cc3ccc4c(c3)OCO4)CC2)c(N)n(Cc2ccccc2)c1=O, the Potency was inconclusive: 0.58 µM [falling, single point].
For Cc1ccc(NC(=O)Cn2nc(C)c([N+](=O)[O-])c2C)cc1Cl, the lipid storage change, negative = inhibition was inconclusive: 39.4%.
In the case of COc1ccc(S(=O)(=O)N2CCN=C2SCc2cccc(F)c2)cc1, the lipid storage change, negative = inhibition is reported as inconclusive: 148%.
In the case of CCOc1cc(CNC2CCCC2)cc(Cl)c1OCc1ccccc1, the lipid storage change, negative = inhibition is reported as inconclusive: -17.7%.
For c1ccc2c(CN3CCCCC3)csc2c1, the lipid storage change, negative = inhibition was inconclusive: -22.7%.
In the case of O=S(=O)(c1ccccc1)N1CCN(c2nnnn2-c2ccccc2)CC1, the lipid storage change, negative = inhibition is reported as inconclusive: -6.69%.
In the case of O=C(Nc1ccc2c(c1)OCO2)c1cccc(F)c1, the lipid storage change, negative = inhibition is reported as inconclusive: 9.44%.
In the case of O=C(O)c1ccc(/C=N/Nc2ccc(C(F)(F)F)cn2)cc1, the lipid storage change, negative = inhibition is reported as inconclusive: 34.3%.
In the case of COc1ccc(Oc2cc(C(F)(F)F)nc(N(C)C)n2)cc1, the lipid storage change, negative = inhibition is reported as inconclusive: -0.97% [cytotoxic].
For O=C(NNC(=S)Nc1ccc(Cl)cc1Cl)c1ccc(N2CCOCC2)c([N+](=O)[O-])c1, the Potency was inconclusive: 18.4 µM [activator, single point].
For O=C1CCCN1C(=O)CCC(=O)N1CCCC1=O, the Potency was inconclusive: 1.84 µM [falling, partial curve, poor fit].
With Cc1cc2ccccc2n2c(SCC(=O)N3CCc4ccccc4C3)nnc12 the lipid storage change, negative = inhibition was inconclusive: -25%.
In the case of Cc1ccccc1OCC(=O)NC(Cc1c[nH]c2ccccc12)C(=O)O (stereo not drawn), the lipid storage change, negative = inhibition is reported as inconclusive: 19.6%.
With CC(C)(C)NC(=O)COC(=O)c1cc(Br)ccc1Cl the lipid storage change, negative = inhibition was inconclusive: 19.6%.
In the case of CCOC(=O)COc1ccc(Br)cc1/C=C\c1[nH]c(=O)[nH]c(=O)c1[N+](=O)[O-], the Potency is reported as active: 20.6 µM.
In the case of COc1ccc(C2CC(=O)N(c3ccccc3)C3=C2C(=O)CCC3)cc1 (stereo not drawn), the lipid storage change, negative = inhibition is reported as inconclusive: 10.7%.
For CC1CCCCN1c1cc(C#N)c(C#N)cc1[N+](=O)[O-] (stereo not drawn), the lipid storage change, negative = inhibition was inconclusive: 460%.
With COc1ccccc1C(=O)NCCC(=O)NCC1CCCO1 (stereo not drawn) the lipid storage change, negative = inhibition was inconclusive: 5.12%.
In the case of CC(=O)N1CC(C)Sc2ccc(S(=O)(=O)N3CCCCC3)cc21 (stereo not drawn), the lipid storage change, negative = inhibition is reported as inconclusive: 37.9%.
With O=C(O)c1ccc(/C=N/Nc2ccc(Cl)nn2)cc1 the lipid storage change, negative = inhibition was inconclusive: 10.4%.
In the case of CC1CCCC(NC(=O)CCn2c(=S)oc3ccccc32)C1C (stereo not drawn), the lipid storage change, negative = inhibition is reported as inconclusive: 22%.
For COc1ccccc1OCC(=O)Nc1nc(C)c(C)s1, the Potency was inconclusive: 20.6 µM [activator, single point].
For O=C1CCc2cc(NS(=O)(=O)c3ccc(Cl)cc3)cc3c2N1CC3, the lipid storage change, negative = inhibition was inconclusive: 19.8%.
For COC(=O)Cn1c(=O)cnc2ccccc21, the Potency was active: 16.4 µM.
For Cc1nn(CCOc2ccccc2)c(=O)n1-c1ccc(F)cc1, the lipid storage change, negative = inhibition was inconclusive: -16.8%.
With COc1ccc2cc(CN(CC3COCCO3)S(=O)(=O)c3c(C)cc(C)cc3C)c(=O)[nH]c2c1 (stereo not drawn) the lipid storage change, negative = inhibition was inconclusive: 18.3%.
With COc1cc(C(=O)OCC(=O)NC2CCS(=O)(=O)C2)c([N+](=O)[O-])cc1OC (stereo not drawn) the lipid storage change, negative = inhibition was inconclusive: -19.8%.
For CCc1ccc(NC(=O)CSc2nc3ccccc3c(=O)n2CCN2CCOCC2)cc1, the Potency was inconclusive: 3.66 µM [falling, single point].
In the case of CCn1cc(CNC(=O)c2ccc(Cl)c([N+](=O)[O-])c2)c(C)n1, the lipid storage change, negative = inhibition is reported as inconclusive: -27.8%.
In the case of COc1ccc(/C=N/Nc2nc3ccccc3o2)cc1OC, the Potency is reported as inconclusive: 3.26 µM [cytotoxic, single point].
For COc1ccc(S(=O)(=O)N2CCOC2CNC(=O)C(=O)NCCN2CCOCC2)cc1OC (stereo not drawn), the Potency was inconclusive: 11.6 µM [activator, partial curve, poor fit].
With COc1ccccc1Cn1c(CCCO)nc2ccccc21 the Potency was inconclusive: 0.58 µM [activator, partial curve].
For Cc1nnc(SCC(=O)c2ccc(Br)cc2)s1, the lipid storage change, negative = inhibition was inconclusive: 0.654%.
With C=CCNc1nc(N)c(C(=O)Nc2cc(C)on2)s1 the lipid storage change, negative = inhibition was inconclusive: -30.2%.
For COc1ccc(Cn2c(C)c(C)c(C#N)c2NC(=O)Nc2cccc(C)c2)cc1, the lipid storage change, negative = inhibition was inconclusive: 4.56%.
For CCCS(=O)(=O)N1CCCC(C(=O)NC2CCCCC2)C1 (stereo not drawn), the Potency was inconclusive: 5.8 µM [activator, partial curve].
In the case of COc1ccccc1-c1nn2c(C(F)(F)F)nnc2s1, the lipid storage change, negative = inhibition is reported as inconclusive: 41.1%.
For COc1ccc(C(C(C(=O)c2cccs2)N2CCOCC2)N2CCOCC2)cc1OC (stereo not drawn), the Potency was inconclusive: 0.259 µM [rising, full curve, poor fit].
For CCOC(=O)C1C(C(=O)Nc2cccc(C(F)(F)F)c2)C1C(=O)NC(C)C (stereo not drawn), the lipid storage change, negative = inhibition was inconclusive: -24.6%.
With O=C(/C=C/c1cccc([N+](=O)[O-])c1)NCCN1CCOCC1 the lipid storage change, negative = inhibition was inconclusive: 0.158%.
In the case of c1csc(-c2cnc3n2CCCC3)c1, the Potency is reported as inconclusive: 6.51 µM [activator, single point].
In the case of CCCCOc1c(Cl)cc(CNC(C)(C)CO)cc1OCC, the lipid storage change, negative = inhibition is reported as inconclusive: -46.6%.
For Cc1noc(C)c1CSCC(=O)Nc1cc(C(F)(F)F)ccc1N1CCOCC1, the Potency was inconclusive: 2.59 µM [falling, partial curve, poor fit].
For C/C(=N\NC(=O)c1ccccc1C)c1ccc(NC(=O)c2cccs2)cc1, the lipid storage change, negative = inhibition was inconclusive: 98.2%.
In the case of COc1ccc(CCNC(=O)CCCn2c(=O)c3cccn3c3cccnc32)c(OC)c1OC, the Potency is reported as inconclusive: 0.164 µM [falling, full curve, poor fit].
For COc1ccc(CNC(=O)CSc2ccc(Br)cc2)cc1OC, the Potency was inconclusive: 0.0046 µM [falling, full curve, poor fit].
In the case of Cc1c(NC(=O)C(C)OC(=O)c2sc3ccccc3c2Cl)c(=O)n(-c2ccccc2)n1C (stereo not drawn), the lipid storage change, negative = inhibition is reported as inconclusive: 30.9%.
With COc1cccc(CNC(=O)CCC(=O)N2CCOCC2)c1 the Potency was inconclusive: 29.1 µM [falling, single point].
With CCOC(=O)Nc1ccc2c(c1)ncn2C1CCCCC1 the lipid storage change, negative = inhibition was inconclusive: -19.3%.
In the case of O=C(NC(=S)Nc1cccc([N+](=O)[O-])c1)C1CCCC1, the Potency is reported as inconclusive: 29.1 µM [activator, single point].
For COc1ccc2c(c1)[nH]c1c(N3CCSCC3)ncnc12, the Potency was inconclusive: 29.1 µM [cytotoxic, single point].
In the case of COc1ccc(C)cc1Nc1nc(C)nc2sc(C)cc12, the lipid storage change, negative = inhibition is reported as inconclusive: 7.35%.
For CCCN(CCC)C(=O)C1CCCN1S(=O)(=O)c1cccc2nsnc12 (stereo not drawn), the lipid storage change, negative = inhibition was inconclusive: -1.57%.
With CC1(C)CC(=O)C(C=NCCC2=CCCCC2)=C(O)C1 the lipid storage change, negative = inhibition was inconclusive: 24.3%.
For COc1ccc(-n2nc([N+](=O)[O-])c(=NCCCN3CCCC3=O)n2O)cc1, the lipid storage change, negative = inhibition was inconclusive: 28.5%.
In the case of COc1ccc(-n2cc(-c3ccc(OC)c(OC)c3)[nH]c2=S)cc1, the lipid storage change, negative = inhibition is reported as inconclusive: 6.14%.
For COc1ccc(-n2cccc2C=O)cc1, the lipid storage change, negative = inhibition was inconclusive: -32%.
In the case of CCOc1ccc(CCNS(=O)(=O)c2cccc3nsnc23)cc1OCC, the Potency is reported as inconclusive: 16.4 µM [activator, single point].
In the case of O=C(CNC(=O)[C@@H]1Cc2ccccc2CN1)Nc1ccc2c(c1)OCO2, the Potency is reported as inconclusive: 29.1 µM [rising, single point].
With Cc1nn(Cc2ccccc2Cl)c(Cl)c1/C=C/C(=O)OCC(=O)NC(N)=O the lipid storage change, negative = inhibition was inconclusive: 5.17%.
For COCCCN1C(=O)c2ccc(C(=O)N3CCN(c4ccc(OC)cc4)CC3)cc2C1=O, the lipid storage change, negative = inhibition was inconclusive: -124%.
For COc1ccc(N=C2S/C(=C\c3ccco3)C(=O)N2CC(C)C)cc1, the lipid storage change, negative = inhibition was “inactive”.
For CC(C)=CCC/C(C)=C/COc1ccc2ccc(=O)oc2c1, the lipid storage change, negative = inhibition was inconclusive: -14.8%.
With CC1CCCN(S(=O)(=O)c2ccc(S(=O)(=O)N3CCCC3)cc2)C1 (stereo not drawn) the lipid storage change, negative = inhibition was inconclusive: 55.7%.
With CC(=O)c1ccc(NC(=O)C(C)OC(=O)c2ccc(NS(=O)(=O)c3ccc(F)c(F)c3)cc2)cc1 (stereo not drawn) the Potency was inconclusive: 0.58 µM [falling, single point].
For O=C(NCc1cccc(Br)c1)C1CC(c2ccccc2C(F)(F)F)=NO1 (stereo not drawn), the lipid storage change, negative = inhibition was inconclusive: 25%.
With CC1(C)CC(=O)c2sc(NS(=O)(=O)c3cc(Cl)ccc3Cl)nc2C1 the lipid storage change, negative = inhibition was inconclusive: -121%.
For NC(=O)c1cc(S(=O)(=O)N2CCN(c3cccc(Cl)c3)CC2)cs1, the lipid storage change, negative = inhibition was “inactive”.
With O=C(Cc1csc(-c2ccccc2)n1)NCc1ccccc1F the lipid storage change, negative = inhibition was inconclusive: 56.6%.
For O=C(O)COc1ccccc1/C=N/NC(=O)CN1CCN(S(=O)(=O)c2ccc(Br)cc2)CC1, the lipid storage change, negative = inhibition was inconclusive: 7.22%.
In the case of CCOc1ccc(NC(=O)c2ccc(NC(=O)CSc3nc4ccccc4c(=O)[nH]3)cc2)cc1, the lipid storage change, negative = inhibition is reported as inconclusive: 74.5%.
In the case of Cc1ccc(S(=O)(=O)NN2C(=O)/C(=C/c3cccc(F)c3)SC2=S)cc1, the lipid storage change, negative = inhibition is reported as inconclusive: -15.9%.
In the case of Cn1c(SCC(N)=O)nnc1C1CCN(C(=O)NCc2ccccc2)CC1, the Potency is reported as inconclusive: 0.461 µM [falling, single point].
